Source: paper PMC5066963
No constants are given. Whether binding was seen depends on the method and setting. Binding seen in cells or lysates may run through a third protein. Some binding calls cover weakened binding; strength is not graded here.

Amino acid sequences for entries named in this document (tags omitted).
UniProt Q9USK8: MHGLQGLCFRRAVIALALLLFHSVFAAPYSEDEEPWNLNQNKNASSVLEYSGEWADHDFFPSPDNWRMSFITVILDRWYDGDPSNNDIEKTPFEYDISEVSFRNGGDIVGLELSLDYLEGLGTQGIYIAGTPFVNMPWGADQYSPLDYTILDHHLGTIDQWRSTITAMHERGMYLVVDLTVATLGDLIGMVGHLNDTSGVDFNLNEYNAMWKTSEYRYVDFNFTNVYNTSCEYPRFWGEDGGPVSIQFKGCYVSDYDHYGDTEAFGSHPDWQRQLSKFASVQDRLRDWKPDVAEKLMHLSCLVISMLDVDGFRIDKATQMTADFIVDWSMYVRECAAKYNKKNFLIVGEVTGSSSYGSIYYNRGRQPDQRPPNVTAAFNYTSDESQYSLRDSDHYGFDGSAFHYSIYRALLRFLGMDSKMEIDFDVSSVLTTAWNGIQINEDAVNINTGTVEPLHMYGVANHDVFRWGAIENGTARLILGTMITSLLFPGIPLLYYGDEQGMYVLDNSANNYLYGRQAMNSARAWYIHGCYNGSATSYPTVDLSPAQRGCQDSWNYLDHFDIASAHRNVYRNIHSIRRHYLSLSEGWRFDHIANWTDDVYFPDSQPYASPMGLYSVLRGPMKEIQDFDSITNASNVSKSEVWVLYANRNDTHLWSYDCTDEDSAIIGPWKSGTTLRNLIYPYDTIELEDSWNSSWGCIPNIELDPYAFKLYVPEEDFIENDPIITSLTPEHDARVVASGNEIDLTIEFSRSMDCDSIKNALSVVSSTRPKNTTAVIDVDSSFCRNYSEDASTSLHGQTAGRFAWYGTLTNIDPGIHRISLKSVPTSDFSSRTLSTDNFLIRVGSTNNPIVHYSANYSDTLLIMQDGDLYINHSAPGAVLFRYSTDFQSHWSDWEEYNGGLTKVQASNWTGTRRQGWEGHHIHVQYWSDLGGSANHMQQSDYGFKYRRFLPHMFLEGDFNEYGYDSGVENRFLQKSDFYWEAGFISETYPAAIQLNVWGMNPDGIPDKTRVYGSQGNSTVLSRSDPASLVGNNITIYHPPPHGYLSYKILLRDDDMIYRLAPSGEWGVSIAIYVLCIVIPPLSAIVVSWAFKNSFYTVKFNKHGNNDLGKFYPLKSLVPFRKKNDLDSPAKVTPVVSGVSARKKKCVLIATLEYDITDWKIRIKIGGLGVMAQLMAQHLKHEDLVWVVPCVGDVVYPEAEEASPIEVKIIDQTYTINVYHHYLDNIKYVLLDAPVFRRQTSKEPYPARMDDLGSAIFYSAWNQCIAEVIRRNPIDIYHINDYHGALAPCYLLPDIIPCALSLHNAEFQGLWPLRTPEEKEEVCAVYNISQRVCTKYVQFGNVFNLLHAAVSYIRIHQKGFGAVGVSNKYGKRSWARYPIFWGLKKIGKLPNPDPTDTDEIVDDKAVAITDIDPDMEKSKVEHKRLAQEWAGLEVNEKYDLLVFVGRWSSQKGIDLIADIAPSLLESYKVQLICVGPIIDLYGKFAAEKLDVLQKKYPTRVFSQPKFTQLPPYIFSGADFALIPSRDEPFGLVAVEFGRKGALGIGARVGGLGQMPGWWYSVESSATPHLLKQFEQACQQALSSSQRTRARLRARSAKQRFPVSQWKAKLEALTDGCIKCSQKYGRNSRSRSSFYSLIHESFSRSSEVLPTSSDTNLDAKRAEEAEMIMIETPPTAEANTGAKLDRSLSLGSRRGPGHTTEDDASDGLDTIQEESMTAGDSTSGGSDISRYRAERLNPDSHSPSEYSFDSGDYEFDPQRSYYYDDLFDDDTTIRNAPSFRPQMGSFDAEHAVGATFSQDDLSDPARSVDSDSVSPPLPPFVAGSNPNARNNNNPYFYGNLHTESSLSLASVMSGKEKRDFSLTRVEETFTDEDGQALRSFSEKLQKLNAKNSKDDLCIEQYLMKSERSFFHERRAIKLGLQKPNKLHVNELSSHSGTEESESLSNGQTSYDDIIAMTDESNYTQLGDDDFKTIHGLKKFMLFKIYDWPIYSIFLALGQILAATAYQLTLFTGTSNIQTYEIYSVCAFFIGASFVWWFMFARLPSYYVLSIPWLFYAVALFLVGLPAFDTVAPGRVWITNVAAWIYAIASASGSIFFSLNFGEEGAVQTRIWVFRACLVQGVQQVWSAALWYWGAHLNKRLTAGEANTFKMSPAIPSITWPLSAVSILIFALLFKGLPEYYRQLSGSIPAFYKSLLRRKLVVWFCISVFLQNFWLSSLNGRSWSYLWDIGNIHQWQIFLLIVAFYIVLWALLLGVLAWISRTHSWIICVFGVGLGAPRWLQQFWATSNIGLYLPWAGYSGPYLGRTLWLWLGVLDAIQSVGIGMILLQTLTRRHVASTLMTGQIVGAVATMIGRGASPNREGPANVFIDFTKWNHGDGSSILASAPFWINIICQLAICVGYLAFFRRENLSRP
UniProt Q10287: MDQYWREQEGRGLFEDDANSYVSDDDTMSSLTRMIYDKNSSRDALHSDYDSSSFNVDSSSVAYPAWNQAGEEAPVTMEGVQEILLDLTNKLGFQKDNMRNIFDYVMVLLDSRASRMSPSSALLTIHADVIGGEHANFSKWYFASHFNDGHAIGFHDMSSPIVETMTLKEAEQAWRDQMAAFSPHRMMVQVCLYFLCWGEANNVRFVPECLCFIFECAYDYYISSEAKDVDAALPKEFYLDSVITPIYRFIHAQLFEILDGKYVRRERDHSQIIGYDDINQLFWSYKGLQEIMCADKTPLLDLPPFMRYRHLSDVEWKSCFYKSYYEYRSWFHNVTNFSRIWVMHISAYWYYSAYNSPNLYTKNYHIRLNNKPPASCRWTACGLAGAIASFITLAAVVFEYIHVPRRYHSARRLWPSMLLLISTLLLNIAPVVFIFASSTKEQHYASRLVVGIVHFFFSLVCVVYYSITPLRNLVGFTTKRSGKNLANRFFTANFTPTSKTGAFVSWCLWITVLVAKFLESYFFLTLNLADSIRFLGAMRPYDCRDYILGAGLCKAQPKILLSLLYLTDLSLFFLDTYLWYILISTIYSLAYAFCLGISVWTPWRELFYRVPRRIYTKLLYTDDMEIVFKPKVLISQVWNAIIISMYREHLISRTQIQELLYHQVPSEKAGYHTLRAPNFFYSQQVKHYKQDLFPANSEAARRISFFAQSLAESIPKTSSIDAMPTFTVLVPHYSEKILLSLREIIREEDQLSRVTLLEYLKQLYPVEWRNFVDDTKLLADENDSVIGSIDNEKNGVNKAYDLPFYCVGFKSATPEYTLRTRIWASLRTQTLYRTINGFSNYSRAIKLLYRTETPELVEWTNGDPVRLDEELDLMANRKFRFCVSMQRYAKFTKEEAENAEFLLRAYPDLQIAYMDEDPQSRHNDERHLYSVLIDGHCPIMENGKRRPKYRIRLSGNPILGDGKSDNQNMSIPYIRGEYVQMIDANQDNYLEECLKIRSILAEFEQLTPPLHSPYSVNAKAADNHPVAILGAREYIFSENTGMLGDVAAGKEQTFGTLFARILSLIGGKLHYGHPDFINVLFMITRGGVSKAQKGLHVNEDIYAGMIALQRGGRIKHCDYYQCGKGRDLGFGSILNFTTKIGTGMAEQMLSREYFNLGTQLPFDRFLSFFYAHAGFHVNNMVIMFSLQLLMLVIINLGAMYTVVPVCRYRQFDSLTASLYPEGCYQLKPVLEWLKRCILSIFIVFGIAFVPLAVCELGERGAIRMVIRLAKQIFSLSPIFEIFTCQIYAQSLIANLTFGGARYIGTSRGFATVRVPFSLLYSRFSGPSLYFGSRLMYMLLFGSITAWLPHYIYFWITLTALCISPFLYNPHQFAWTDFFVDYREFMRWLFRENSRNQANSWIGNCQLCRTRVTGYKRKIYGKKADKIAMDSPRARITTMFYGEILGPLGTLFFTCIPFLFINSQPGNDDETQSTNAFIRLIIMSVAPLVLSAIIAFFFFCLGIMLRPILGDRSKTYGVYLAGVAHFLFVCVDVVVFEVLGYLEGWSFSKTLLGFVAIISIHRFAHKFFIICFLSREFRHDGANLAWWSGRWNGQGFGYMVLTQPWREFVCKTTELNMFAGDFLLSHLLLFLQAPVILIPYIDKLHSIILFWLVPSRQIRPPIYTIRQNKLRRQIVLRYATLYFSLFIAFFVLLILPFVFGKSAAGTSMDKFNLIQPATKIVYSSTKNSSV

Target: GFP-Ags1p (S. pombe) (UniProt Q9USK8)
Experiment: co-IP; solubilized membrane proteins of S. pombe strains (50 mM Tris-HCl pH 7.5, 5 mM EDTA, 200 mM NaCl, 0.5% Tween 20) immunoprecipitated with anti-GFP antibody and protein A Sepharose at 4°C; blotted with anti-HA

binding: binds
Substance: HA-Bgs1p (from UniProt Q10287 1-1729)
